Data: PMC5469495, “MicroRNA319-regulated TCPs interact with FBHs and PFT1 to activate CO transcription and control flowering time in Arabidopsis” (PLoS Genetics, 2017)
Results are given in words; binding and its absence hold for the method and conditions named. For some assays here: A result given as binding can be weak or reduced; the word gives no strength. For some assays here: Binding seen in cells or lysates may run through a third protein.

Protein sequences, listed by entry. Tags and fused reporters are not part of them. Lines headed by an entry give the natural chain unless they say otherwise; changes in a name come on top.
UniProt Q9M0R0: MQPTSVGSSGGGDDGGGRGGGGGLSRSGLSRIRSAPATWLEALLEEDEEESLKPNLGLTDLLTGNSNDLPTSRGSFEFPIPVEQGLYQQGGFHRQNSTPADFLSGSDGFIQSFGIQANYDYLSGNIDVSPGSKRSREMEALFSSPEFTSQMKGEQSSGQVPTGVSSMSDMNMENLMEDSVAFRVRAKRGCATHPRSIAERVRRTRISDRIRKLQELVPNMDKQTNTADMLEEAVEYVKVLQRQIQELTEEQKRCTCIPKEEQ
UniProt Q9C690: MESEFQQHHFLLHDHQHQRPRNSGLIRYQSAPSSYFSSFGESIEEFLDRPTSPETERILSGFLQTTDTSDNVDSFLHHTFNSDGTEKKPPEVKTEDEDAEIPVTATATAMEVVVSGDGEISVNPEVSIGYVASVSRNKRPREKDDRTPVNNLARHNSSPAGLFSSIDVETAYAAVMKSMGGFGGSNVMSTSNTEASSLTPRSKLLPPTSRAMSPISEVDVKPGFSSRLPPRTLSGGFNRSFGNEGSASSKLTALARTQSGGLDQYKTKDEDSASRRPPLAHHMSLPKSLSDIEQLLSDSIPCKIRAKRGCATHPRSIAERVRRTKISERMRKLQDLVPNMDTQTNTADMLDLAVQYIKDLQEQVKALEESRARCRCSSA
UniProt Q66GR3: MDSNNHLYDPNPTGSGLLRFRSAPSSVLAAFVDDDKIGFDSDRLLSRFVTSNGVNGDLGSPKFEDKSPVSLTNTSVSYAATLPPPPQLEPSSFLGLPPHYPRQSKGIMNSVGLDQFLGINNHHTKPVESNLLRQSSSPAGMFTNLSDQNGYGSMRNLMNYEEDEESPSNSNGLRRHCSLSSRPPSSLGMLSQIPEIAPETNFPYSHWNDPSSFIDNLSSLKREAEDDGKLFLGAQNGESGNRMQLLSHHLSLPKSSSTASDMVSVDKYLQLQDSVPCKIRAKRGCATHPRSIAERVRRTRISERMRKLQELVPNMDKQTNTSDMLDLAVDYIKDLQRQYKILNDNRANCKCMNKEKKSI
UniProt Q9C8P8: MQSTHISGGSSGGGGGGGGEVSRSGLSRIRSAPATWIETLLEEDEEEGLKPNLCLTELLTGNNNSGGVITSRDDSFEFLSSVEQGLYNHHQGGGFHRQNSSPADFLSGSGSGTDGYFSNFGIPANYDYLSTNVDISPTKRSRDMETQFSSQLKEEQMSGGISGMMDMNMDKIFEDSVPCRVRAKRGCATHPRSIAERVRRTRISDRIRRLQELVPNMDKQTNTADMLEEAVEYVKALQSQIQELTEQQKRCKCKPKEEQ

T1: CDF1 (Arabidopsis thaliana) (UniProt Q8W1E3)
T1 sequence: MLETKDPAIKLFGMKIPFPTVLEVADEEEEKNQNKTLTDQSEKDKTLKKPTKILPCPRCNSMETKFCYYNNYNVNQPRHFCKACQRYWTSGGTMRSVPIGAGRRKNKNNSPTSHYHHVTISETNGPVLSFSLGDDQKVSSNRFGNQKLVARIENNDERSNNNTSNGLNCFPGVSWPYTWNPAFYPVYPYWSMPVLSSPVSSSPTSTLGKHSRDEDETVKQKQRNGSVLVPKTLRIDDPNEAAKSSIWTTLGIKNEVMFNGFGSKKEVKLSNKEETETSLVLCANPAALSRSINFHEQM

T2: CDF2 (Arabidopsis thaliana) (UniProt Q93ZL5)
T2 sequence: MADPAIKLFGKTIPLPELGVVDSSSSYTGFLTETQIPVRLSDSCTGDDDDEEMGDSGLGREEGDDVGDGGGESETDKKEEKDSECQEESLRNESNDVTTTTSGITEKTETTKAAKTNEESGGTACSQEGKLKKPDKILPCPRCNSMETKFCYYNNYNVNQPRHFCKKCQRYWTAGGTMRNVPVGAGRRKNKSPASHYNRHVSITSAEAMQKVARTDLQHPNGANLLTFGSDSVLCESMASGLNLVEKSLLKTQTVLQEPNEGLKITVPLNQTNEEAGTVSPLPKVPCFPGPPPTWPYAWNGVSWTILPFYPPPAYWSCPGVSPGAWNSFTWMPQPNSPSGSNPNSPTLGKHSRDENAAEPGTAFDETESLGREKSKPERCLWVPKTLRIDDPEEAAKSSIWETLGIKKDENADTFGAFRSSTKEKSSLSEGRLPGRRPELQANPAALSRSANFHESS

T3: CDF3 (Arabidopsis thaliana) (UniProt Q8LFV3)
T3 sequence: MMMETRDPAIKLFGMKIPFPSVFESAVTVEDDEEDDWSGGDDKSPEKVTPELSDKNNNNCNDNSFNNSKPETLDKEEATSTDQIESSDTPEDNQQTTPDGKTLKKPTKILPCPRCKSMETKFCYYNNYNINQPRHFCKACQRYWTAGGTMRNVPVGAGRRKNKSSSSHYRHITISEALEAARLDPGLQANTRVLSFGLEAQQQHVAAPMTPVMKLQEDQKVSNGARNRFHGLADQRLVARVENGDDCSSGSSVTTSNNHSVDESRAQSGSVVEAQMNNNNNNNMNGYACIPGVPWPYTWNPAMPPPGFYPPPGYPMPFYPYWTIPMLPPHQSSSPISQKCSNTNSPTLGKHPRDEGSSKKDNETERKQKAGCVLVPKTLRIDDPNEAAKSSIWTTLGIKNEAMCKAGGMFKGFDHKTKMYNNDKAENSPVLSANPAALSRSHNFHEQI

T4: PHYTOCHROME AND FLOWERING TIME 1 (Arabidopsis thaliana) (UniProt Q7XYY2)
T4 sequence: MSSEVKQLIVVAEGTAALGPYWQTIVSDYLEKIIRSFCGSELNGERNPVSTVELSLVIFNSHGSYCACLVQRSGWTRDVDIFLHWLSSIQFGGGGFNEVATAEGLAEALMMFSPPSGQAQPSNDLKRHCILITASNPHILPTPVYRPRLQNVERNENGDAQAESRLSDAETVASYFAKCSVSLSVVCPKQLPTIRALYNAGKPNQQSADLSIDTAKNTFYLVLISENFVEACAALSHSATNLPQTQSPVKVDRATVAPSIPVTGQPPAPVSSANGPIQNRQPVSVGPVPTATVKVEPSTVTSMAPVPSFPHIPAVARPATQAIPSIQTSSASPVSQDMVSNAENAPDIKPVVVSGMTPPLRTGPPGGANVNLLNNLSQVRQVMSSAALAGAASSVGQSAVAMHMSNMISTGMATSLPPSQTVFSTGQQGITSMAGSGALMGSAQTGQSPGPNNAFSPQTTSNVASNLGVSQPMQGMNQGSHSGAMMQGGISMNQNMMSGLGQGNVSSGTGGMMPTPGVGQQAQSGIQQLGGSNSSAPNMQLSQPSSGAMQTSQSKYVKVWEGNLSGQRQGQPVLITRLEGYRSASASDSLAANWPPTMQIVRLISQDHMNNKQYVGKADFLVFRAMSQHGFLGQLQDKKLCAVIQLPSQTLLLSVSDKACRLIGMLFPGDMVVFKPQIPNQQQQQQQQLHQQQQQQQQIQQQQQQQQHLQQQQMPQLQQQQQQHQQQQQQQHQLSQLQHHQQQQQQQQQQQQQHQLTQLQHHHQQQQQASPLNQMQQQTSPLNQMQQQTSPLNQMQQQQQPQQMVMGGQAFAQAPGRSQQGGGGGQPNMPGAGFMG


Legend:
[1] = target: T1, CDF1 (Arabidopsis thaliana); test: two-hybrid; GAL4-AD and GAL4-BD derivatives co-transformed into yeast strain AH109; grown on SD-L/W, screened on SD-L/W/H or SD-L/W/H/A with 3-AT
[2] = target: T2, CDF2 (Arabidopsis thaliana); test: as above
[3] = target: T3, CDF3 (Arabidopsis thaliana); test: as above
[4] = target: T4, PHYTOCHROME AND FLOWERING TIME 1 (Arabidopsis thaliana); test: as above
[5] = target: T1, CDF1 (Arabidopsis thaliana); test: split reporter; LUC complementation imaging (LCI): nLUC and cLUC fusions co-infiltrated by Agrobacterium into N. benthamiana leaves; LUC activity 48 h after infiltration
[6] = target: T2, CDF2 (Arabidopsis thaliana); test: as above
[7] = target: T3, CDF3 (Arabidopsis thaliana); test: as above
[8] = target: T4, PHYTOCHROME AND FLOWERING TIME 1 (Arabidopsis thaliana); test: as above
[9] = target: T4, PHYTOCHROME AND FLOWERING TIME 1 (Arabidopsis thaliana); test: co-IP; GFP- and Myc-fused proteins transiently co-expressed in N. benthamiana leaves, collected 48 h after infiltration; anti-GFP- or anti-Myc-conjugated agarose beads; lysis buffer 50 mM Tris-HCl pH 7.5, 150 mM NaCl, 5 mM EDTA, 0.1% Triton X-100, 0.2% NP-40
[10] = target: FBH2 (Arabidopsis thaliana) (UniProt Q9M0R0); test: two-hybrid; GAL4-AD and GAL4-BD derivatives co-transformed into yeast strain AH109; grown on SD-L/W, screened on SD-L/W/H or SD-L/W/H/A with 3-AT
[11] = target: FBH3 (Arabidopsis thaliana) (UniProt Q9C690); test: as above
[12] = target: FBH4 (Arabidopsis thaliana) (UniProt Q66GR3); test: as above
[13] = target: FLOWERING BHLH 1 (Arabidopsis thaliana) (UniProt Q9C8P8); test: as above
[14] = target: FBH2 (Arabidopsis thaliana) (UniProt Q9M0R0); test: split reporter; LUC complementation imaging (LCI): nLUC and cLUC fusions co-infiltrated by Agrobacterium into N. benthamiana leaves; LUC activity 48 h after infiltration
[15] = target: FBH3 (Arabidopsis thaliana) (UniProt Q9C690); test: as above
[16] = target: FBH4 (Arabidopsis thaliana) (UniProt Q66GR3); test: as above
[17] = target: FLOWERING BHLH 1 (Arabidopsis thaliana) (UniProt Q9C8P8); test: as above

Molecule | binding [1] | binding [2] | binding [3] | binding [4] | binding [5] | binding [6] | binding [7] | binding [8] | binding [9] | binding [10] | binding [11] | binding [12] | binding [13] | binding [14] | binding [15] | binding [16] | binding [17]
FLOWERING BHLH 1 (from UniProt Q9C8P8) | no binding | no binding | no binding | binds | no binding | no binding | no binding | binds | binds | – | – | – | – | – | – | – | –
TCP4 (protein, UniProt Q8LPR5 1-420) MSDDQFHHPPPPSSMRHRSTSDAADGGCGEIVEVQGGHIVRSTGRKDRHSKVCTAKGPRDRRVRLSAHTAIQFYDVQDRLGFDRPSKAVDWLIKKAKTSIDELAELPPWNPADAIRLAAANAKPRRTTAKTQISPSPPPPQQQQQQQQLQFGVGFNGGGAEHPSNNESSFLPPSMDSDSIADTIKSFFPVIGSSTEAPSNHNLMHNYHHQHPPDLLSRTNSQNQDLRLSLQSFPDGPPSLLHHQHHHHTSASASEPTLFYGQSNPLGFDTSSWEQQSSEFGRIQRLVAWNSGGGGGATDTGNGGGFLFAPPTPSTTSFQPVLGQSQQLYSQRGPLQSSYSPMIRAWFDPHHHHQSISTDDLNHHHHLPPPVHQSAIPGIGFASGEFSSGFRIPARFQGQEEEQHDGLTHKPSSASSISRH | – | – | – | – | – | – | – | – | – | binds | binds | binds | binds | binds | binds | binds | binds
